Experimental data: patent US5252464 (dated 1993)
No end group written: not given here.

Test: general procedure: solution-phase peptide synthesis; DCC/HONSu
Details: acetate

Substance | final HPLC purity (late stage modification step) [%] | step yield (late stage modification step) [%] | final HPLC purity (coupling step) [%] | step yield (coupling step) [%]
H-Asp-Ser-Asp-Pro-Arg-OH | 98.5 | 80.1 | – | –
Ser-Asp-Pro-Arg-OEt, 2xCH3 COOH | – | – | 96.9 | 80
DSDPR-OEt | – | – | 97.1 | 84
